These results are taken from article PMC5727390.

Protein sequences, listed by entry. Tags and fused reporters are not part of them. Residues count along the entry.
UniProt P40763, 127-722: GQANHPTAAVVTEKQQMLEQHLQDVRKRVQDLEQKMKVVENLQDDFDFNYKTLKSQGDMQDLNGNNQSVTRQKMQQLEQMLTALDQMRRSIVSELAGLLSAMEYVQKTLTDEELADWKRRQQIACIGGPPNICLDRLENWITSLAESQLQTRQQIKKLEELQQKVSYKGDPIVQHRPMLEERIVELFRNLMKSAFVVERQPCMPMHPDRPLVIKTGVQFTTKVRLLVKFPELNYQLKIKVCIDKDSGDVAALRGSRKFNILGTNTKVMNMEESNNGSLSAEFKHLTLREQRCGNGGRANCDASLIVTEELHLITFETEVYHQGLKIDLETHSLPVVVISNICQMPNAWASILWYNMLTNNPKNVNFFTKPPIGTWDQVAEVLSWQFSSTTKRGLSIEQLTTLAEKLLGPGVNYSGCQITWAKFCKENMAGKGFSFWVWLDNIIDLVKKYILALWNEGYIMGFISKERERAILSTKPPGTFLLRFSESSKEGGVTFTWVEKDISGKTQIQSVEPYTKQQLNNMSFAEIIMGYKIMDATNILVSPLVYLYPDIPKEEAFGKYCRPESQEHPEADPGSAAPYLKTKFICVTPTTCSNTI

The exact form of at least one protein or probe is not confirmed. The comparison behind a weaker result is the experiment's own reference, which may not be listed here.

In the data set the target is STAT3 (UniProt P40763). Nature of the data set: EMSA. The conditions noted are these: NSC-370284 (concentration not in text), binding almost completely blocked; Signosis EMSA Assay Kit, manufacturer's protocol with minor modifications; pH and temperature not stated; label: 5' biotin on both strands. For orientation: In EMSA bound probe runs differently from free probe, usually more slowly.

In the case of “CCGGTAGGCGTCCTCCGCGACCCGC (double strand) [TET1-CPG probe]”, the binding result is reported as “binds more weakly”.
